Results published in publication PMC11173765 (Molecules, 2024).

Experiments:
HUH-7 = test: Cytotoxicity, resazurin viability assay in HUH-7 cells; assay type: cell-based; details: Homo sapiens, 48 hrs treatment, mean ± SEM
Description: (§1) To gather preliminary data for later use evaluating antioxidant properties, we tested the cytotoxicity profiles of the novel compounds in human cell lines of neuroblastoma SH-SY5Y and hepatocarcinoma HUH-7, which are commonly used as neuronal models in similar studies.
(§2) Cytotoxic potency was measured using a resazurin assay (see Supplementary Materials). Cells were treated with increasing concentrations of each compound for 48 hours before the cell viability was assessed (Supplementary Materials). […]
(§3) Cell viability was evaluated using resazurin (SERVA Electrophoresis GmbH, Heidelberg, Germany) as previously described.
(§4) Briefly, a resazurin stock solution (440 μM, 10× in phosphate-buffered saline) was diluted in a culture medium to prepare a 44 μM working solution. Cells (5 × 10^3) were seeded in 96-well plates, incubated with 100µl of resazurin working solution, and fluorescence was measured after 1, 2, and 3 hrs. The background fluorescence of killed cells was subtracted, and viability was calculated relative to control cells treated with DMSO solvent (1%). The fluorescence was measured using an Envision 2104 Multi-label Microplate Reader (Perkin Elmer, Boston, MA, USA) and by setting the excitation wavelength at λ = 530 nm and emission wavelength at λ = 590 nm. […] Cytotoxicity was calculated as 100% minus the percentage of viability. […]

SH-SY5Y = test: Cytotoxicity, resazurin viability assay in SH-SY5Y cells; assay type: cell-based; details: Homo sapiens, 48 hrs treatment, mean ± SEM
Description: as §1, §2, §3, §4

Work on `O=C(CCCN1CCC(O)(c2ccc(Cl)cc2)CC1)c1ccc(F)cc1` [HAL, haloperidol, reference compound] yielded an IC50 (HUH-7) of 19 ± 2 µM and an IC50 (SH-SY5Y) of 41 ± 6 µM.
